Laboratory results: PubChem BioAssay AID720710 (VTT Finland, 2013)
Assay: 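siRNAs sensitising CCNE1-overexpressing U-2 OS cells to replication stress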 (primary screen). Cell system: human U-2 OS bone cancer cells, parental and a cyclin E (CCNE1) overexpressing line. Knock-down reagent: single siRNA against human genes, 1 µM siRNA in the printed spot mix. Timing: 67 h. Challenge: half the arrays: hydroxyurea 2 mM for 16 h, then 3 h recovery; other arrays untreated. Measurement: 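DNA synthesis measured as imaged EdU uptake per nucleus (DAPI) at 67 h, normalised to subgrid median and given as z-score versus non-targeting controls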. Scale: EdU z-score, cyclin E line, hydroxyurea and EdU z-score, parental, hydroxyurea: higher = more DNA synthesis than non-targeting controls.
Shown is a random part of about 1,380 reagents tested. 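One array per condition without replicates; hydroxyurea arrays received 2 mM for 16 h plus 3 h recovery.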 The numbers tell different reagents against one gene apart. Not all columns of the deposit are shown.

{"gene": "SUMO2 (small ubiquitin like modifier 2)", "siRNA no.": 1, "EdU z-score, cyclin E line, hydroxyurea": -1.05, "EdU z-score, parental, hydroxyurea": -0.51}
{"gene": "SUMO2 (small ubiquitin like modifier 2)", "siRNA no.": 2, "EdU z-score, cyclin E line, hydroxyurea": 1.05, "EdU z-score, parental, hydroxyurea": 1.63}
{"gene": "TNFAIP1 (TNF alpha induced protein 1)", "siRNA no.": 1, "EdU z-score, cyclin E line, hydroxyurea": -0.288, "EdU z-score, parental, hydroxyurea": -2.27}
{"gene": "TNFAIP1 (TNF alpha induced protein 1)", "siRNA no.": 2, "EdU z-score, cyclin E line, hydroxyurea": 1.21, "EdU z-score, parental, hydroxyurea": 2.86}
{"gene": "ASTE1 (asteroid structure-specific endonuclease 1)", "siRNA no.": 1, "EdU z-score, cyclin E line, hydroxyurea": -0.623, "EdU z-score, parental, hydroxyurea": -2.36}
{"gene": "ASTE1 (asteroid structure-specific endonuclease 1)", "siRNA no.": 2, "EdU z-score, cyclin E line, hydroxyurea": -0.567, "EdU z-score, parental, hydroxyurea": 1.83}
{"gene": "ENPP7 (ectonucleotide pyrophosphatase/phosphodiesterase 7)", "siRNA no.": 1, "EdU z-score, cyclin E line, hydroxyurea": 0.519, "EdU z-score, parental, hydroxyurea": -2.58}
{"gene": "ENPP7 (ectonucleotide pyrophosphatase/phosphodiesterase 7)", "siRNA no.": 2, "EdU z-score, cyclin E line, hydroxyurea": 2.01, "EdU z-score, parental, hydroxyurea": 1.16}
{"gene": "MCM4 (minichromosome maintenance complex component 4)", "siRNA no.": 1, "EdU z-score, cyclin E line, hydroxyurea": -0.656, "EdU z-score, parental, hydroxyurea": -0.992}
{"gene": "MCM4 (minichromosome maintenance complex component 4)", "siRNA no.": 2, "EdU z-score, cyclin E line, hydroxyurea": 0.888, "EdU z-score, parental, hydroxyurea": 1.46}
{"gene": "UBAP2L (ubiquitin associated protein 2 like)", "siRNA no.": 1, "EdU z-score, cyclin E line, hydroxyurea": 0.32, "EdU z-score, parental, hydroxyurea": -0.507}
{"gene": "UBAP2L (ubiquitin associated protein 2 like)", "siRNA no.": 2, "EdU z-score, cyclin E line, hydroxyurea": 0.62, "EdU z-score, parental, hydroxyurea": 0.546}
{"gene": "HDAC1 (histone deacetylase 1)", "siRNA no.": 1, "EdU z-score, cyclin E line, hydroxyurea": -1.23, "EdU z-score, parental, hydroxyurea": -3.16}
{"gene": "HDAC1 (histone deacetylase 1)", "siRNA no.": 2, "EdU z-score, cyclin E line, hydroxyurea": 0.906, "EdU z-score, parental, hydroxyurea": -0.658}
{"gene": "FANCL (FA complementation group L)", "siRNA no.": 1, "EdU z-score, cyclin E line, hydroxyurea": -0.717, "EdU z-score, parental, hydroxyurea": -4.51}
{"gene": "FANCL (FA complementation group L)", "siRNA no.": 2, "EdU z-score, cyclin E line, hydroxyurea": -0.382, "EdU z-score, parental, hydroxyurea": -1.53}
{"gene": "H4C4 (H4 clustered histone 4)", "siRNA no.": 1, "EdU z-score, cyclin E line, hydroxyurea": -1.01, "EdU z-score, parental, hydroxyurea": -1.22}
{"gene": "H4C4 (H4 clustered histone 4)", "siRNA no.": 2, "EdU z-score, cyclin E line, hydroxyurea": 1.34, "EdU z-score, parental, hydroxyurea": 2.07}
{"gene": "XRCC3 (X-ray repair cross complementing 3)", "siRNA no.": 1, "EdU z-score, cyclin E line, hydroxyurea": -1.03, "EdU z-score, parental, hydroxyurea": -4.7}
{"gene": "XRCC3 (X-ray repair cross complementing 3)", "siRNA no.": 2, "EdU z-score, cyclin E line, hydroxyurea": -0.706, "EdU z-score, parental, hydroxyurea": 2.72}
{"gene": "PRIMPOL (primase and DNA directed polymerase)", "siRNA no.": 1, "EdU z-score, cyclin E line, hydroxyurea": -1.08, "EdU z-score, parental, hydroxyurea": -0.806}
{"gene": "PRIMPOL (primase and DNA directed polymerase)", "siRNA no.": 2, "EdU z-score, cyclin E line, hydroxyurea": -0.261, "EdU z-score, parental, hydroxyurea": 3.78}
{"gene": "BRCA2 (BRCA2 DNA repair associated)", "siRNA no.": 1, "EdU z-score, cyclin E line, hydroxyurea": -1.64, "EdU z-score, parental, hydroxyurea": -0.916}
{"gene": "BRCA2 (BRCA2 DNA repair associated)", "siRNA no.": 2, "EdU z-score, cyclin E line, hydroxyurea": 4.51, "EdU z-score, parental, hydroxyurea": 0.161}
{"gene": "XPC", "siRNA no.": 1, "EdU z-score, cyclin E line, hydroxyurea": -2.43, "EdU z-score, parental, hydroxyurea": -2.21}
{"gene": "XPC", "siRNA no.": 2, "EdU z-score, cyclin E line, hydroxyurea": -1.87, "EdU z-score, parental, hydroxyurea": -0.513}
{"gene": "SFPQ (splicing factor proline and glutamine rich)", "siRNA no.": 1, "EdU z-score, cyclin E line, hydroxyurea": -0.228, "EdU z-score, parental, hydroxyurea": -0.222}
{"gene": "SFPQ (splicing factor proline and glutamine rich)", "siRNA no.": 2, "EdU z-score, cyclin E line, hydroxyurea": 0.676, "EdU z-score, parental, hydroxyurea": 1.35}
{"gene": "IP6K3 (inositol hexakisphosphate kinase 3)", "siRNA no.": 1, "EdU z-score, cyclin E line, hydroxyurea": 0.476, "EdU z-score, parental, hydroxyurea": -0.423}
{"gene": "IP6K3 (inositol hexakisphosphate kinase 3)", "siRNA no.": 2, "EdU z-score, cyclin E line, hydroxyurea": 1.37, "EdU z-score, parental, hydroxyurea": 0.333}
{"gene": "ASF1A (anti-silencing function 1A histone chaperone)", "siRNA no.": 1, "EdU z-score, cyclin E line, hydroxyurea": -1.97, "EdU z-score, parental, hydroxyurea": -0.79}
{"gene": "ASF1A (anti-silencing function 1A histone chaperone)", "siRNA no.": 2, "EdU z-score, cyclin E line, hydroxyurea": 0.972, "EdU z-score, parental, hydroxyurea": 2.19}
{"gene": "LOC649445", "siRNA no.": 1, "EdU z-score, cyclin E line, hydroxyurea": -1.93, "EdU z-score, parental, hydroxyurea": -0.597}
{"gene": "LOC649445", "siRNA no.": 2, "EdU z-score, cyclin E line, hydroxyurea": -1.48, "EdU z-score, parental, hydroxyurea": 0.276}
{"gene": "UBE2I (ubiquitin conjugating enzyme E2 I)", "siRNA no.": 1, "EdU z-score, cyclin E line, hydroxyurea": -3.29, "EdU z-score, parental, hydroxyurea": -0.544}
{"gene": "UBE2I (ubiquitin conjugating enzyme E2 I)", "siRNA no.": 2, "EdU z-score, cyclin E line, hydroxyurea": -0.0378, "EdU z-score, parental, hydroxyurea": 0.367}
{"gene": "H2BC3 (H2B clustered histone 3)", "siRNA no.": 1, "EdU z-score, cyclin E line, hydroxyurea": -1.93, "EdU z-score, parental, hydroxyurea": -1.31}
{"gene": "H2BC3 (H2B clustered histone 3)", "siRNA no.": 2, "EdU z-score, cyclin E line, hydroxyurea": 0.452, "EdU z-score, parental, hydroxyurea": 0.836}
{"gene": "KIN (Kin17 DNA and RNA binding protein)", "siRNA no.": 1, "EdU z-score, cyclin E line, hydroxyurea": -0.869, "EdU z-score, parental, hydroxyurea": 0.198}
{"gene": "KIN (Kin17 DNA and RNA binding protein)", "siRNA no.": 2, "EdU z-score, cyclin E line, hydroxyurea": 0.877, "EdU z-score, parental, hydroxyurea": 1.44}

As entered above:
Result for MCM4 (minichromosome maintenance complex component 4) #2 in “EdU z-score, parental, hydroxyurea”: 1.46
Under “EdU z-score, parental, hydroxyurea”, UBAP2L (ubiquitin associated protein 2 like) #1 shows -0.507
Value of HDAC1 (histone deacetylase 1) #1 in “EdU z-score, cyclin E line, hydroxyurea”: -1.23
For “EdU z-score, cyclin E line, hydroxyurea”, HDAC1 (histone deacetylase 1) #2 reads 0.906
For “EdU z-score, parental, hydroxyurea”, ASTE1 (asteroid structure-specific endonuclease 1) #1 has -2.36
